Some of these results come from one statement about several compounds together.
Assays:
[1] = system: Streptococcus mutans ATCC 25175; experiment: Challenge test of powder product, liquid product, xylitol and bicarbonate of soda (based on B.S.3286:1960), Example 4; type: cell-based; details: over the 5 days
Protocol: (§1) The powder product and the liquid product were challenge tested against the organisms Streptococcus mutans and Porphyromonas gingivalis. […] The challenge method used was based on B.S.3286: 1960 “Method for Laboratory Evaluation of Disinfectant Activity of Quaternary Ammonium Compounds by Suspension Test Procedure”. This standard describes a test procedure for the laboratory evaluation of the activity of disinfectants, in which a suspension of viable microorganisms is added to solutions containing a pre-determined concentration of the disinfectant and the numbers of organisms surviving after a period of time is determined. A 1:5 solution of the powders with sterile deionised water was used for the challenge testing. The liquid product was used neat. The following organisms were used for the challenge testing: […] A modification will be made to the method by the addition of 10 ml of each solution each day, for 4 days. (The blank solution would have 10 ml of Neutralising buffer added.) […]

[2] = system: Porphyromonas gingivalis ATCC 3327; experiment: as above; type: cell-based; details: over the 5 days
Protocol: as §1

With OC[C@@H](O)[C@H](O)[C@@H](O)CO [Xylitol solution, Xylitol] the “reduction in the Streptococcus mutans population” value [1] was “greater than 7 log” and the “reduction in the Porphyromonas gingivalis population” value [2] was “greater than 6 log”.

Reference: patent publication US20140345648A1, “Oral Healthcare, Products and Methods Therefor” (OZOSPA HOLDINGS LIMITED, priority 2011, published 2014)
